Measurements as given in article PMC6235520 (Science Advances, 2018).

Molecular target: human KCNQ1 (Homo sapiens, UniProt P51787)
Test: Two-electrode voltage clamp of KCNQ1 expressed in Xenopus laevis oocytes
Format: cell-based

Compound: CC(C)CC(=O)O [isovaleric acid]
- sensitivity of KCNQ1 to compound: insensitive
